According to publication PMC12709185:
These are yes or no findings as the source states them, for the method shown. Binding seen in cells or lysates may run through a third protein. Binding can be weak; no strength is given. Sequences can lack the tags named with a protein.

Sequences of proteins named here, by UniProt entry; tags and fusion partners are left off. A change or cut given only in a name is not applied to a line headed by its entry.
UniProt Q9U2U0: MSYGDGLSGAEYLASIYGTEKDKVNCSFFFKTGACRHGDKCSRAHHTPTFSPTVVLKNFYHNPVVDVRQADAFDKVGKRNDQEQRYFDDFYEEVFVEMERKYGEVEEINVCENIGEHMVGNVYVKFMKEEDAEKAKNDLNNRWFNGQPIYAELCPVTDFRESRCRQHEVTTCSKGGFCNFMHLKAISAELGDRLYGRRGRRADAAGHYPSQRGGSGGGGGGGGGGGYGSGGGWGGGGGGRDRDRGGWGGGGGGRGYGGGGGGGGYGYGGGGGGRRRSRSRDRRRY

Biological target: UAF-2::HA (C. elegans UAF-2, wild type) (C. elegans) (UniProt Q9U2U0)
Assay: pull-down; lysate (NP-40 buffer) of HEK293T cells expressing UAF-2::HA incubated overnight at 4°C with purified His::UAF-1::FLAG and Protein A/G magnetic beads carrying anti-HA antibody; washed 5 times with 1 x PBST; western blot; only the binder purified

binding: binds
B1: His::UAF-1(T180I)::FLAG (C. elegans UAF-1 T180I) (protein, UniProt P90978-1 1-496)
chain: MSDHQDGMKLEDIERQFLDVAQREGGLEAIQPTTGPLENEENLKSSTGGGGGEDDNDRKKRKRSRSRDRDTRRRSRSRDRGERRGGGGGGDRDRSRSRERRRGGGGRDEPRRRGGDDEARSRREPEPQKPREPKKYRFWDVPPTGFETTTPMEYKNMQAAGQVPRGSVQSAVPVVGPSVICQSRRLYVGNIPFGCNEEAMLDFFNQQMHLCGLAQAPGNPILLCQINLDKNFAFIEFRSIDETTAGMAFDGINFMGQQLKVRRPRDYQPSQNTFDMNSRMPVSTIVVDSANKIFIGGLPNYLTEDQVKELLCSFGPLKAFSLNVDSQGNSKGYAFAEYLDPTLTDQAIAGLNGMQLGDKQLVVQLACANQQRHNTNLPNSASAIAGIDLSQGAGRATEILCLMNMVTEDELKADDEYEEILEDVRDECSKYGIVRSLEIPRPYEDHPVPGVGKVFVEFASTSDCQRAQAALTGRKFANRTVVTSYYDVDKYHNRQF
